# Laboratory results from US8815565B2, “Method for culturing mycoplasma contamination-free cells and method for removing mycoplasma contamination of cells” (Cellsafe Co., Ltd., priority 2010, dated 2014).
# Tested on: HepG2 cell line contaminated with mycoplasma
# Test: Co-treatment with amphidinol 3 (AM3) and cyclic lipopeptide/antibiotic, PCR with mycoplasma diagnosis kit
# Assay type: cell-based
# Procedure: The cell lines NIH3T3, HepG2, and Raw 264.7, which were confirmed to be contaminated with mycoplasma, were each inoculated at a concentration of 1×10^6 cells on a T-75 culture flask (NUNC, Cat. No. 156367). DMEM (GIBCO BRL, Cat. No. 12800-058) containing 10% or less of serum (GIBCO BRL, Cat. […] After culturing for 3 days, the obtained cells were treated with Trypsin-EDTA to obtain a cell solution. The resulting cells (1×10^6 cells) which was treated with amphidinol 3 (AM3) were inoculated. DMEM (GIBCO BRL, Cat. No. 12800-058) containing 10% or less of serum (GIBCO BRL, Cat. […] After culturing for 3 days, the cells were harvested. PCR was performed thereon with a mycoplasma diagnosis kit (Promokine, Germany; Cellsafe Co., Ltd., Korea) according to the enclosed protocol. The resulting PCR products were electrophoresed on a 1% agarose gel to measure the mycoplasma contamination.
# Mycoplasma contamination was measured in the same manner as in (2) except that HepG2 was used as a cell line contaminated with mycoplasma; and instead of the treatment with amphidinol 3 (AM3), 5 μg/ml and 10 μg/ml of amphidinol 3 (AM3) was used together with surfactin (10 μM or 20 μM), ciprofloxacin (1 μg/ml or 5 μg/ml), or rifampicin (0.5 μg/ml or 1 μg/ml).
compound,measurement,setting,value
O=C(O)c1cn(C2CC2)c2cc(N3CCNCC3)c(F)cc2c1=O [ciprofloxacin],mycoplasma contamination,"used alone, surfactin 10 or 20 μM, ciprofloxacin 1 or 5 μg/ml, rifampicin 0.5 or 1 μg/ml",mycoplasma contamination remained
same,mycoplasma contamination,used together with amphidinol 3 (AM3) 5 and 10 μg/ml,completely removed
